Over roughly 33,000 sequences, “E-score (-0.5 to 0.5)” has its median near -0.0034; the highest 2% begin near 0.25. This is one part of the list.
What follows are sequences tested against T1, Yap3 (UniProt P38749) (assay: PBM E-score (8-mer binding enrichment) (E-score (-0.5 to 0.5)); higher = stronger / more preferred TF binding). Conditions: protein concentration: 100 nM; construct: GST-full length.
T1 sequence: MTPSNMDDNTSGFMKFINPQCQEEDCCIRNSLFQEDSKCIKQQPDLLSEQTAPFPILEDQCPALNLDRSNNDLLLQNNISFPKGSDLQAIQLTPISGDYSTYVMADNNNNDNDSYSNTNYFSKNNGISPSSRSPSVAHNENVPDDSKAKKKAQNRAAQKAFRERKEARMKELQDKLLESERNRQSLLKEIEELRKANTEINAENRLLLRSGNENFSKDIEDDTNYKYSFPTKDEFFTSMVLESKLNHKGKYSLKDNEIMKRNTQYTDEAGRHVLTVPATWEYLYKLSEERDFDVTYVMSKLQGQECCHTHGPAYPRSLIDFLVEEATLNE
How it was run: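 E-scores (a modified Wilcoxon-Mann-Whitney statistic) were assigned by the Universal PBM Analysis Suite to every ungapped eight-base word pooled with its reverse complement. The input came from universal all-10-mer Agilent arrays made double-stranded by primer extension and probed with GST-tagged yeast transcription factors at about 100-200 nM. Fluorescent anti-GST detected bound protein, and masliner normalised the scans.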

Sequence | PBM E-score
ATACACCC | 0.03
TGAACGAA | -0.027
CAAGTGAA | 0.0621
TAAATGCA | 0.211
GGAGTCCA | -0.111
TAATTAAA | 0.115
ATCATTGG | 0.033
CATCCCTC | -0.16
AGTGTTGC | 0.129
CAACGGCG | -0.0242
AAGAGAAG | -0.0633
AGCGTTGC | 0.0498
AGTCAGAG | -0.0578
TAATCGCA | 0.123
TGAGGCCA | 0.0548
CGAGGTTA | 0.145
CCTTTTTA | -0.0267
ACTGTGCA | -0.0351
CATTGGAC | -0.042
AGCCTACG | 0.0774
CGTAAATC | -0.00431
TAACATGA | 0.171
TCGGTGAA | 0.0338
AAGCTTAC | 0.00508
ATTAAGCA | 0.0634

Looked up above.
In PBM E-score, CATCCCTC has -0.16
In PBM E-score, CGAGGTTA has 0.145

Next part

Sequence | PBM E-score
CAGTGCTC | -0.138
AAAACCTC | 0.112
GAGGGAGA | -0.171
CGCCCTGC | -0.202
ATAGTAAG | 0.152
AGTCCGCC | -0.0339
CACGTACA | 0.0193
CGCAACCG | -0.126
GATTTAGA | 0.0922
CAGCTTCG | -0.0144
GCGAGTTA | 0.126
GACTTCGA | -0.00531
ATAGGATG | 0.198
AATCTATA | 0.164
AAGCGTAC | -0.044
CGGGGTGA | -0.0798
AGCGAGGC | -0.0759
AGGAAGCA | -0.123
AGATTCAT | -0.104
AGTTTTTA | 0.0105
CAGTCGCC | -0.204
TGAACCCA | -0.0237
GAAACTTA | 0.177
CGTAGAAA | 0.0328
AAACTTTA | 0.21

Looked up one by one from the entries so far, 3 records:
Sequence | PBM E-score
CAGTCGCC | -0.204
AGATTCAT | -0.104
AAACTTTA | 0.21

Additional records follow.

Sequence | PBM E-score
AATCTGGT | 0.0811
CACAACAA | 0.0683
CGTACTAC | 0.0488
AGCCGGAT | -0.0454
CCTGAGGA | -0.0633
CAAGTGGA | 0.0657
ACACCCGC | -0.0407
TAGTCCGA | 0.0255
GCTCAGCA | -0.0726
GACCAAAC | 0.0224
AAGTATTA | 0.142
CTTGGACA | -0.0572
AAAAACAT | 0.159
AGCCCTAT | -0.197
CTTACACC | -0.184
AATAGGTG | -0.0377
ACCCCTAC | -0.151
GTGGTTGA | -0.0186
TGCGGCCA | -0.116
AGATGGAA | -0.0109
AATTTAGT | 0.21
CGAGCAGC | 0.12
GAGGATCA | -0.0991
AAGGCGTA | -0.0608
CGGTTCGC | -0.184

Sequence | PBM E-score
CCAAATGG | -0.133
AGCCTTGC | -0.106
ACTATGTC | -0.0812
AGTCAGGG | -0.185
ATAGGCTG | 0.0796
GCTTCGAC | -0.0385
ACGTAGGG | -0.241
CACGGGAA | -0.0634
CCCCCACC | -0.368
ATACTCTC | 0.197
GAGAACCA | 0.0914
ACTCTGAG | -0.0751
CCCCTTTA | -0.247
CGGTCGTC | -0.242
ACCATGGT | -0.192
CCCAGACG | -0.144
GGCGGAAA | -0.0177
AGGCTCAG | -0.187
CCTAGGTA | 0.0302
CGGGAAAC | 0.0165
ATACCCCC | -0.126
ACTTCATG | -0.109
CACCCGTA | 0.0758
AAATTCAT | 0.0786
ATCGTCCG | -0.00057

Quoted from above (3 entries):
Sequence | PBM E-score
CACCCGTA | 0.0758
AAATTCAT | 0.0786
ATCGTCCG | -0.00057

Later entries.

Sequence | PBM E-score
AATCCATG | 0.11
ACGCGCCG | -0.0226
AGAGGAGC | -0.172
CCGCGAAC | -0.0464
AACAGTTA | 0.12
ATTGCAGA | 0.13
CCGTAACC | -0.0335
AGGGCACT | -0.276
GCTACGCC | -0.314
GAGGGAAA | -0.148
ATCTCTTG | -0.00997
CTCCCATA | -0.0713
CCTCATGC | -0.112
CACCCTGG | -0.234
ACAGCCAC | -0.0261
CGCTAGAG | -0.0581
AACGGATC | 0.216
CGATTAGC | -0.102
ATCATTCA | 0.17
CAAGGGTG | -0.0956
GAGGTGTA | -0.0903
CTACCGTC | -0.0521
CTAGAGAG | -0.139
GGAACGAA | 0.149
ACCCCTTA | -0.232

Sequence | PBM E-score
GTGTAAGA | -0.0287
CTTCAGGC | -0.153
ACTTTGCT | 0.0198
CGGGTTAC | 0.0307
TAAGGTAA | 0.231
GCTGCAGC | 0.09
GCGGATTA | 0.151
AATTCGGC | 0.0272
GCCTTTAA | 0.0855
GAGAGAGA | -0.133
CGTCATAC | 0.173
GCTTCGAA | 0.0601
AGACAACT | 0.158
CTGCGCGA | -0.0222
ATATGTGG | 0.135
AATCGACC | -0.00549
ATGGGGAA | 0.102
GTGATCAC | 0.00406
AAGTAAGG | 0.19
TACTCGAA | -0.0829
AAAGCATC | 0.0884
AGTTCCCC | -0.17
AAATCTGG | 0.102
AGCTGAAC | -0.125
GGTAAACA | 0.141

Sequence | PBM E-score
AGTGAAGC | -0.0889
AAGGGGGC | -0.0945
CGCACAGC | -0.154
CGCGGATC | -0.213
AACGGTAT | 0.106
CCCAGTAC | -0.177
CCTGCATA | -0.0619
AGGACTTA | -0.121
AATGGGTA | 0.123
GCCCCTCC | -0.243
GTGTCGCA | -0.0188
GCGTTACC | -0.116
CCGCGAGC | -0.16
GGGAGACA | -0.112
AATGTGCC | -0.0237
CGAGTGAC | -0.163
CCCGCGTC | 0.00331
TCCTTTAA | -0.0127
GAGTAGCC | -0.159
AGATTGCA | -0.11
CCGGGCAA | -0.194
CGTAGATA | 0.0847

— the supplement of paper PMC3334620
